PubChem BioAssay AID2517 (National Center for Advancing Translational Sciences (NCATS), 2010)
About 1,200 (0.34%) of roughly 350,000 compounds were called active. Inconclusive results, whose numbers are uncertain, are shown with a selection of clear calls. Calls follow the shape of the dose curve; as a rule, active = well fitted inhibition curve with a large enough effect; inconclusive = small, poorly fitted or top-dose-only effect; inactive = no such curve, though single readings can be large or run the other way. A potency beside an inconclusive call is a rough fit, not a confirmed value.

Amino acid sequences for entries named in this document (tags omitted).
UniProt P27695, whole entry, looked up: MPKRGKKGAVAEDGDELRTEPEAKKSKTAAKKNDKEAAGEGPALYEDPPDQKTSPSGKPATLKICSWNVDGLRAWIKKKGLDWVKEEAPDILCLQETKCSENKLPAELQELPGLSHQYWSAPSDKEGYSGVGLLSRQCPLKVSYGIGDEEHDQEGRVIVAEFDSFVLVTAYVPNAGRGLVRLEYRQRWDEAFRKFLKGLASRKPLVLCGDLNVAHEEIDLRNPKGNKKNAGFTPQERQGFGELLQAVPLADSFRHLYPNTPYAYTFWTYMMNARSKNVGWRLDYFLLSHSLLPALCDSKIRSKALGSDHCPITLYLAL

What follows are compounds tested against DNA repair nuclease/redox regulator APEX1 (Homo sapiens) (UniProt P27695) (assay: qHTS Assay for Inhibitors of the Human Apurinic/apyrimidinic Endonuclease 1 (APE1)). Details: recombinant APE1, TAMRA/BHQ-2 abasic DNA cleavage fluorescence; activity change, negative = inhibition: at 65.8 µM (top of the series).
In short: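 APE1 at 0.75 nM preincubated 15 min at room temperature with compound. Reaction then started with 50 nM double-stranded THF-abasic substrate labelled with TAMRA/BHQ-2, and 525/598 nm fluorescence read kinetically. Activity taken as third-minus-first read difference, normalized to DMSO and NSC13755 controls.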
Also: nearly all actives have a fitted effect of over 55% in size.
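For activity change, negative = inhibition in this document: plate controls were vehicle for no effect and reference inhibitor for full effect.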
Potency is read from the fitted curve at half-maximal effect.

Compound | activity change, negative = inhibition | Potency
CCCCN(CC)C(=O)Cc1c(C(=O)O)[nH]c2ccc(Cl)cc12 | inactive: 3.17% | 
CCN(CC)c1ccc(NC(=O)COC(=O)c2ccc3ccccc3n2)cc1 |  | inconclusive: 56.2 µM [inhibitor, partial curve, poor fit]
O=C1N=C(N2CCCC2C(=O)O)S/C1=C\c1ccco1 (stereo unspecified) |  | inconclusive: 25.1 µM [inhibitor, single point]
O=C(NCCc1c[nH]c2ccccc12)C(=O)NCC(c1cccnc1)N1CCN(c2ccccc2)CC1 (stereo unspecified) |  | inconclusive: 3.16 µM [inhibitor, single point]
O=c1[nH][nH]c2cc(=O)n(-c3ccc(Cl)cc3)nc12 |  | inconclusive: 7.94 µM [inhibitor, partial curve]
CC(/C=C/c1ccc2c(c1)OCO2)=N\NC(=O)c1cccc([N+](=O)[O-])c1 |  | inconclusive: 3.16 µM [inhibitor, partial curve, poor fit]
COc1ccc(Nc2ccc(N3C(=O)CCC3=O)cc2[N+](=O)[O-])cn1 |  | inconclusive: 39.8 µM [inhibitor, single point]
O=C(COC(=O)Cc1ccccc1[N+](=O)[O-])NCc1ccc(Cl)cc1 | inactive: 1.25% | 
O=C1CC(=O)CC(c2ccco2)C1 |  | inconclusive: 25.1 µM [inhibitor, partial curve]
CC(=O)OC1CC[C@@]2(C)C(=CC[C@H]3[C@@H]4CC[C@H](C(C)=O)[C@@]4(C)CC[C@@H]32)C1 (stereo partly specified) | inactive: -1.48% | 
N#CCCCS(=O)(=O)c1nc2ccccc2s1 | inactive: -2.29% | 
COc1ccc2ccc(=O)oc2c1 |  | inconclusive: 7.94 µM [inhibitor, single point]
COc1ccc(-c2cc3ccc(O)cc3oc2=O)cc1 | inactive: -20.6% | 
Cc1noc(C)c1COc1ccc(C(=O)OC(C)C(=O)Nc2ccc(N3CCOCC3)cc2)cc1 (stereo unspecified) | inactive: 1.68% | 
Cc1cc(-c2nc3c4c5c(sc4[nH]c(=O)n3n2)CCC5)c(C)o1 |  | inconclusive: 20 µM [inhibitor, partial curve]
O=C(Cn1cnc([N+](=O)[O-])n1)NCCO |  | inconclusive: 15.8 µM [inhibitor, partial curve, poor fit]
Nc1ccc(NC(=O)c2ccc(C(=O)Nc3ccc(N)cc3)cc2)cc1 | inactive: -0.35% | 
Cc1cc(=O)oc2cc(OCC(=O)OC(C)C(=O)NC3CCCC3)ccc12 (stereo unspecified) |  | inconclusive: 39.8 µM [inhibitor, single point]
Cc1ccc(-c2nc(NC(=O)CSc3cc(C)c4ccccc4n3)ns2)cc1 |  | inconclusive: 3.16 µM [inhibitor, single point]
CCCNC(=O)c1c[nH]c2ccc(S(=O)(=O)N(C)c3ccc(OCC)cc3)cc2c1=O |  | inconclusive: 0.794 µM [inhibitor, full curve, poor fit]
CCOc1ccccc1C(=O)OCC(=O)Nc1ccc(OC(F)F)cc1 |  | inconclusive: 31.6 µM [inhibitor, single point]
OCCN1CCN(C(c2cccs2)c2ccc3cccnc3c2O)CC1 (stereo unspecified) | inactive: -1.8% | 

Compound | activity change, negative = inhibition | Potency
CCOc1ccc2[nH]c(=O)c(C(c3nnnn3Cc3ccco3)N3CCN(C)CC3)cc2c1 (stereo unspecified) |  | inconclusive: 3.16 µM [inhibitor, full curve, poor fit]
CCOC(=O)N/N=C1/C[C@@H](O)[C@@H](O)[C@@H]2[C@@H]3C(=O)N([C@@H](C)c4ccccc4)C(=O)[C@H]3CC[C@H]12 |  | inconclusive: 3.55 µM [inhibitor, single point]
Cn1cnc([N+](=O)[O-])c1Oc1cccc2ccccc12 | inactive: 17.9% | 
COc1ccc(CCNC(=S)NC(=O)c2c(-c3ccccc3Cl)noc2C)cc1OC |  | inconclusive: 3.98 µM [inhibitor, single point]
O=C(Cc1ccc(Cl)c(Cl)c1)NC1CCCCCC1 | inactive: 4.39% | 
CCn1c(SCC(=O)c2ccc(O)c(O)c2)nnc1-c1ccccc1 |  | inconclusive: 31.6 µM [inhibitor, single point]
CN(C(=O)Nc1ccc(C(C)(C)C)cc1)C1CCCCC1 |  | inconclusive: 4.47 µM [inhibitor, single point]
Cc1cc(F)ccc1NCc1ccc([N+](=O)[O-])cc1 | inactive: -5.57% | 
CCCN(C(=O)/C=C/c1ccco1)c1c(N)n(Cc2ccccc2)c(=O)[nH]c1=O |  | inconclusive: 44.7 µM [inhibitor, single point]
CCc1ccc(NCc2cc3c(C)nn(-c4ccccc4)c3[nH]c2=O)cc1 |  | inconclusive: 0.178 µM [inhibitor, full curve, poor fit]
Cc1ccc(NC(=O)COC(=O)/C(=C/c2cccs2)c2cccs2)cc1S(=O)(=O)N(C)C |  | inconclusive: 12.6 µM [inhibitor, partial curve, poor fit]
Cc1ccc(C(=O)NNC(=O)c2ccco2)cc1 |  | inconclusive: 31.6 µM [inhibitor, single point]
COc1ccc(C(=O)C2CCCN(Cc3sc(N4CCCC4)nc3Cl)C2)c(OC)c1 (stereo unspecified) | inactive: -1.46% | 
Cc1cc2c(c(=O)n1-c1ccccc1)C1O[C@](c3ccsc3)(Cc3ccccc31)O2 | inactive: -22.6% [at 12.4 µM] | 
Nc1c(C(=O)O)ccc2c1C(=O)c1ccccc1C2=O |  | inconclusive: 44.7 µM [inhibitor, single point]
COc1cccc(NC(=O)C23CCC(C)(C(=O)O2)C3(C)C)c1 (stereo unspecified) |  | inconclusive: 4.47 µM [inhibitor, partial curve, poor fit]
CNC(=S)N/N=C/c1ccc(-c2cccc(C(=O)O)c2)o1 | inactive: 1.04% | 
C#CCOCCOCCOCCNc1nc(N2CCN(C(=O)CCCCCCCCCCNC(=O)[C@@H](CCC(=O)O)n3cc(CCCCCN)nn3)CC2)nc(N2CCN(C(=O)CCCCCCCCCCNC(=O)[C@H](CCCCN)n3cc(C[C@@H](C)CC)nn3)CC2)n1 | inactive: 21.8% | 
C#CCOCCOCCOCCNc1nc(N2CCN(C(=O)CCCCCCCCCCNC(=O)[C@@H](CCSC)n3cc(CCO)nn3)CC2)nc(N2CCN(C(=O)CCCCCCCCCCNC(=O)[C@H](CO)n3cc(CCCCCN)nn3)CC2)n1 |  | inconclusive: 37.7 µM [inhibitor, single point]
O=[N+]([O-])c1cccc2c(Br)[nH]nc12 |  | inconclusive: 39.8 µM [inhibitor, partial curve, poor fit]
COc1ccc(NC(=O)COC(=O)c2ccc(C)c(S(=O)(=O)N3CCCCC3)c2)cc1 | inactive: -41.1% | 
NS(=O)(=O)c1ccc2nc(NC(=O)c3ccc(Br)o3)sc2c1 |  | inconclusive: 11.2 µM [inhibitor, partial curve]

Compound | activity change, negative = inhibition | Potency
O=C(O)c1ccccc1C(=O)c1ccc(Br)s1 |  | inconclusive: 31.6 µM [inhibitor, single point]
O=C(O)CCCNC(=O)Nc1ccccc1 |  | inconclusive: 3.16 µM [inhibitor, single point]
CCOc1ccc(-n2cnnn2)cc1S(=O)(=O)N1CCCCC1 |  | inconclusive: 44.7 µM [inhibitor, single point]
COc1ccc(N2C(=O)CC(Nc3cccc([N+](=O)[O-])c3)C2=O)cc1 (stereo unspecified) |  | inconclusive: 31.6 µM [inhibitor, single point]
COc1ccc(-n2cnc3cc(NCc4ccco4)ccc32)cc1 |  | inconclusive: 28.2 µM [inhibitor, partial curve, poor fit]
O=C(COc1ccc(-c2nnco2)cc1)Nc1cc([N+](=O)[O-])ccc1F |  | inconclusive: 23.8 µM [inhibitor, single point]
CC(=O)Oc1ccc(N(c2ccccc2)S(=O)(=O)c2ccc(C)cc2)cc1 |  | inconclusive: 20 µM [inhibitor, single point]
O=C(O)c1cccc(N/N=C/C2=C(Cl)c3cc(Cl)ccc3SC2)c1 |  | inconclusive: 39.8 µM [inhibitor, single point]
CC(C)CCNC(=O)COc1ccc(N(C)S(=O)(=O)c2ccc(F)cc2)cc1 |  | inconclusive: 25.1 µM [inhibitor, single point]
O=C1CCCc2c1nc(-c1ccco1)n2O |  | inconclusive: 0.708 µM [inhibitor, partial curve, poor fit]
CCOc1ccc(/C=C/[N+](=O)[O-])c2ccccc12 |  | inconclusive: 0.141 µM [inhibitor, full curve, poor fit]
Fc1c(F)c(F)c(/C=N/NC(=S)Nc2cccnc2)c(F)c1F | inactive: -0.984% | 
COc1ccc(CCNC(=S)NC(=O)c2cccc(Cl)c2)cc1OC |  | inconclusive: 8.91 µM [inhibitor, single point]
O=C1NC(c2ccc(Br)cc2)=N/C1=C/c1ccco1 |  | inconclusive: 39.8 µM [inhibitor, single point]
Nc1ccccc1NC(=O)c1ccc(CNC(=O)OCc2cccnc2)cc1 | inactive: -6.94% | 
O=C(ONc1ccc(N=NC(=O)c2ccccc2O)cc1)c1ccccc1 | inactive: 0.926% | 
O=C1CCCC2=C1C(c1cccs1)Nc1ccc3ncccc3c12 (stereo unspecified) | inactive: -7.13% | 
O=S(=O)(c1ccccc1)N1CCSC1c1ccco1 (stereo unspecified) |  | inconclusive: 25.1 µM [inhibitor, single point]
Cc1ccc(C(C(=O)NC(C)(C)C)N(Cc2cccnc2)C(=O)C(=O)NC2CCCCC2)o1 (stereo unspecified) |  | inconclusive: 0.0224 µM [inhibitor, full curve, poor fit]
CCOc1ccc(S(=O)(=O)Nc2cc(NS(=O)(=O)c3ccc(OCC)cc3)cc(C(=O)O)c2)cc1 |  | inconclusive: 21.2 µM [inhibitor, single point]
N#Cc1nc(-c2ccc(F)cc2)oc1NCc1ccccc1 |  | inconclusive: 35.5 µM [inhibitor, single point]
O=C(COC(=O)/C=C/c1ccc(Br)o1)Nc1ccc2[nH]c(=O)[nH]c2c1 |  | inconclusive: 8.44 µM [inhibitor, partial curve]

Taken from above.
activity change, negative = inhibition with CCCCN(CC)C(=O)Cc1c(C(=O)O)[nH]c2ccc(Cl)cc12 reads inactive: 3.17%
Potency with CCn1c(SCC(=O)c2ccc(O)c(O)c2)nnc1-c1ccccc1 reads inconclusive: 31.6 µM [inhibitor, single point]

Part of the list above, as labelled records.
O=C(ONc1ccc(N=NC(=O)c2ccccc2O)cc1)c1ccccc1
  activity change, negative = inhibition: inactive: 0.926%
O=C(COC(=O)/C=C/c1ccc(Br)o1)Nc1ccc2[nH]c(=O)[nH]c2c1
  Potency: inconclusive: 8.44 µM [inhibitor, partial curve]
